# Assay results reported in the supplement of paper PMC10849652.
# Protein sequences, listed by entry. Tags and fused reporters are not part of them. Lines headed by an entry give the natural chain unless they say otherwise; changes in a name come on top.
# UniProt Q9BZM1: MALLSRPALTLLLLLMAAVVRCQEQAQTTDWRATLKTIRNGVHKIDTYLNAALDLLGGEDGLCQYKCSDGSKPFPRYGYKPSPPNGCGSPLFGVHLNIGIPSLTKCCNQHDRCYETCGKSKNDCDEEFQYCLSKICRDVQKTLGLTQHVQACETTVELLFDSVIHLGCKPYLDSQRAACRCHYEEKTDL
# UniProt P14618, whole entry, looked up: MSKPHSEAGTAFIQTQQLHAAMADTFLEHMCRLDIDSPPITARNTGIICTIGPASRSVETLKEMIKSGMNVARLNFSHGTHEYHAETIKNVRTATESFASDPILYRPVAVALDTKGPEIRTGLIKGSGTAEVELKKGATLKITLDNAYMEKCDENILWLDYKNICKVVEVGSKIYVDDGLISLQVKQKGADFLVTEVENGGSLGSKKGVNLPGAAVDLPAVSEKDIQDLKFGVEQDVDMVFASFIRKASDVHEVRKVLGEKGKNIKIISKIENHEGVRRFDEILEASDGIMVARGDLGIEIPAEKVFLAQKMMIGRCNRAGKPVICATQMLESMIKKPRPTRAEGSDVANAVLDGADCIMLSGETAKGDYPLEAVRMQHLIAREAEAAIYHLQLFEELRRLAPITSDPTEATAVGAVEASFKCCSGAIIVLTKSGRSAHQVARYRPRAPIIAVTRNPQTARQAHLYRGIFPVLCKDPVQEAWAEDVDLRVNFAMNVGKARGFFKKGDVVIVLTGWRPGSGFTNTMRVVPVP
# UniProt Q6PCE3: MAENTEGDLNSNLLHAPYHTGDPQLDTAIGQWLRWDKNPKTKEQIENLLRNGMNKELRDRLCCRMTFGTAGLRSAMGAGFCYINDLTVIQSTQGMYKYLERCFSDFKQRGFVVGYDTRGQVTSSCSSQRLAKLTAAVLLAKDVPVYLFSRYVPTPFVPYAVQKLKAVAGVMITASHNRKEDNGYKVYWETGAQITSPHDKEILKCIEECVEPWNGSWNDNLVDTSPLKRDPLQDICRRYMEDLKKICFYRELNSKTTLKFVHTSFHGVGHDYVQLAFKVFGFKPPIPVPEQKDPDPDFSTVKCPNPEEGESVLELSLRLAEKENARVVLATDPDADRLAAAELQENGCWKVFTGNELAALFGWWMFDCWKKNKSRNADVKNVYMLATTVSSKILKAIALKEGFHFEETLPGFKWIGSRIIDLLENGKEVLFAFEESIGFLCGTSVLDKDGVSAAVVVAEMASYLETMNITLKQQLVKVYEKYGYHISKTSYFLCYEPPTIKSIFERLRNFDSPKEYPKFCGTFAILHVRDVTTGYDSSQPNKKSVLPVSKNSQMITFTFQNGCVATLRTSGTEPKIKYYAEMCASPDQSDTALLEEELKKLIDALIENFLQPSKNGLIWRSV
# UniProt Q9H490: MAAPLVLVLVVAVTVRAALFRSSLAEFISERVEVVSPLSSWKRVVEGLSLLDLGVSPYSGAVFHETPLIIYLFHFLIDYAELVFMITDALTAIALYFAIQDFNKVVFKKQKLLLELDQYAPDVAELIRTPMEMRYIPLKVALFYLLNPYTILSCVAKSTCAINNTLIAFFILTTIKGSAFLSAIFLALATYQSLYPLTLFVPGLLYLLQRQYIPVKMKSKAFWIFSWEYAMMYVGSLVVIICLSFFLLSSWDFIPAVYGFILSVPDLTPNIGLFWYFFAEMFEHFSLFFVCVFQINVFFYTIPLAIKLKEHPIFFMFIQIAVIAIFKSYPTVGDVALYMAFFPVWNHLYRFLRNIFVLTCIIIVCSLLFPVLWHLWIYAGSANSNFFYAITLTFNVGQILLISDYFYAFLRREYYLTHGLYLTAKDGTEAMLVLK
# UniProt Q8NEB9, whole entry, looked up: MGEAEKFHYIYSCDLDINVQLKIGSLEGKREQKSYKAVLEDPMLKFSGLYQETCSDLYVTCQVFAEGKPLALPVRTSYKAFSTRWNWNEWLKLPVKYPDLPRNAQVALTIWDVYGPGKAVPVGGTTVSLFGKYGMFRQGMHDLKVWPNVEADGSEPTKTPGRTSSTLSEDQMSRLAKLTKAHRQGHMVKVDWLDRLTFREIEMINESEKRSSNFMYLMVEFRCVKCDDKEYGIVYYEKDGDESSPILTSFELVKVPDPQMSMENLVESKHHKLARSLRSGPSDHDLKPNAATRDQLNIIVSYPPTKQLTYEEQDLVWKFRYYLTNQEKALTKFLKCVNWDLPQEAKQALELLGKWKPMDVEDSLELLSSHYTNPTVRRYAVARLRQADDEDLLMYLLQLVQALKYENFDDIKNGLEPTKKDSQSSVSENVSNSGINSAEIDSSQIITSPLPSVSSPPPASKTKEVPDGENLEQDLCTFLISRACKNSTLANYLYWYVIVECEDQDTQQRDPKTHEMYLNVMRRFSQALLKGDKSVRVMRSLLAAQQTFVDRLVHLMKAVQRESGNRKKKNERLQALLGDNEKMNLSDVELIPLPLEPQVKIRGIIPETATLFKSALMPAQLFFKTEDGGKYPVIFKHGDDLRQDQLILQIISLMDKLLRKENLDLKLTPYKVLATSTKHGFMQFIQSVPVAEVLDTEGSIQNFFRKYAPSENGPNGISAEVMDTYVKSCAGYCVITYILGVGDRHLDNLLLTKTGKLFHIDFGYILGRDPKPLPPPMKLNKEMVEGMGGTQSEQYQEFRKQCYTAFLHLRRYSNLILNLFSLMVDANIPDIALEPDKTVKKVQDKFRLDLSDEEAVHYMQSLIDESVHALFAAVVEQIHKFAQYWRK
# UniProt Q8TCD6: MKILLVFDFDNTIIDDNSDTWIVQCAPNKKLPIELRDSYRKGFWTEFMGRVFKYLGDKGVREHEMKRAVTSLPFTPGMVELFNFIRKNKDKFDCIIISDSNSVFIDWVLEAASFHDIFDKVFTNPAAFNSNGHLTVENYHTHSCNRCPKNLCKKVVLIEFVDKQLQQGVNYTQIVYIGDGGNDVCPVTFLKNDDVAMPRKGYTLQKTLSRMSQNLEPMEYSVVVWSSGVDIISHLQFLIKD
# UniProt O95394: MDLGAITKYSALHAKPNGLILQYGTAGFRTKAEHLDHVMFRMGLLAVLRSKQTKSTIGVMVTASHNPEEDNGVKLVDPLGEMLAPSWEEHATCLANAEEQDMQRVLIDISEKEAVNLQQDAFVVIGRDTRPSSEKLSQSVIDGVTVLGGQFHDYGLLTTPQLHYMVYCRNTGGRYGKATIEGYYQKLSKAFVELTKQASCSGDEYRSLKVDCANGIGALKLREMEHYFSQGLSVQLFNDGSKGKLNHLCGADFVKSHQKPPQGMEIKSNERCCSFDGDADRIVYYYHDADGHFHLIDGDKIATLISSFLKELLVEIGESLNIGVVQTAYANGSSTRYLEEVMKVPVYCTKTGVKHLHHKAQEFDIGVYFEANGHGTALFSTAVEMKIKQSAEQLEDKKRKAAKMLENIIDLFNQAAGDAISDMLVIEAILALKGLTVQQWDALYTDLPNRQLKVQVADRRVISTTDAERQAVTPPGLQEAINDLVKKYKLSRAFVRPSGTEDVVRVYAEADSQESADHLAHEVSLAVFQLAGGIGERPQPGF
# UniProt Q16513: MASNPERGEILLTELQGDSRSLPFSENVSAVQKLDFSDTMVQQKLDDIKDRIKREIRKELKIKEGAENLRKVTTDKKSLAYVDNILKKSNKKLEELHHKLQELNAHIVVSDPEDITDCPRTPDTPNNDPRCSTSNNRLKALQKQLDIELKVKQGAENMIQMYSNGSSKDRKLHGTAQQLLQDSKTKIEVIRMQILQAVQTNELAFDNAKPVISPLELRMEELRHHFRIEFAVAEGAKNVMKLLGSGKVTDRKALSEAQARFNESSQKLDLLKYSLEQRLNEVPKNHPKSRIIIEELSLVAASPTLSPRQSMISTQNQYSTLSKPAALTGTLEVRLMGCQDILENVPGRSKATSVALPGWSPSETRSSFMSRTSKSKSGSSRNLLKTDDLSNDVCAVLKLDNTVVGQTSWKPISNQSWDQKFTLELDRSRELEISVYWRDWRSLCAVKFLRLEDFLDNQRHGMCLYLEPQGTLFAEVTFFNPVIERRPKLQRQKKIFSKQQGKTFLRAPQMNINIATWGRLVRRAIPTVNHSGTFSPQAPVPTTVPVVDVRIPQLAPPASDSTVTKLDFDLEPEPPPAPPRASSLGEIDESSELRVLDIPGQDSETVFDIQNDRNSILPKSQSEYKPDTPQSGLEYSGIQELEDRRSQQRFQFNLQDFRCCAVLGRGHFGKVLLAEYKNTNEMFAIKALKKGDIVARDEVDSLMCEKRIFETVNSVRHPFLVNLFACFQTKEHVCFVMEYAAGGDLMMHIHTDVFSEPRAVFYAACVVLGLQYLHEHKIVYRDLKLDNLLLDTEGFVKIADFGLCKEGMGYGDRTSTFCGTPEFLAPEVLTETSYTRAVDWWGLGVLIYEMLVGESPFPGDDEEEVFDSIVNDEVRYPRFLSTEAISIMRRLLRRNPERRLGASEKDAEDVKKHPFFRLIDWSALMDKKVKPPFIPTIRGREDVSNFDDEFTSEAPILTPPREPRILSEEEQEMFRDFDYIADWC
# UniProt Q9Y2I7: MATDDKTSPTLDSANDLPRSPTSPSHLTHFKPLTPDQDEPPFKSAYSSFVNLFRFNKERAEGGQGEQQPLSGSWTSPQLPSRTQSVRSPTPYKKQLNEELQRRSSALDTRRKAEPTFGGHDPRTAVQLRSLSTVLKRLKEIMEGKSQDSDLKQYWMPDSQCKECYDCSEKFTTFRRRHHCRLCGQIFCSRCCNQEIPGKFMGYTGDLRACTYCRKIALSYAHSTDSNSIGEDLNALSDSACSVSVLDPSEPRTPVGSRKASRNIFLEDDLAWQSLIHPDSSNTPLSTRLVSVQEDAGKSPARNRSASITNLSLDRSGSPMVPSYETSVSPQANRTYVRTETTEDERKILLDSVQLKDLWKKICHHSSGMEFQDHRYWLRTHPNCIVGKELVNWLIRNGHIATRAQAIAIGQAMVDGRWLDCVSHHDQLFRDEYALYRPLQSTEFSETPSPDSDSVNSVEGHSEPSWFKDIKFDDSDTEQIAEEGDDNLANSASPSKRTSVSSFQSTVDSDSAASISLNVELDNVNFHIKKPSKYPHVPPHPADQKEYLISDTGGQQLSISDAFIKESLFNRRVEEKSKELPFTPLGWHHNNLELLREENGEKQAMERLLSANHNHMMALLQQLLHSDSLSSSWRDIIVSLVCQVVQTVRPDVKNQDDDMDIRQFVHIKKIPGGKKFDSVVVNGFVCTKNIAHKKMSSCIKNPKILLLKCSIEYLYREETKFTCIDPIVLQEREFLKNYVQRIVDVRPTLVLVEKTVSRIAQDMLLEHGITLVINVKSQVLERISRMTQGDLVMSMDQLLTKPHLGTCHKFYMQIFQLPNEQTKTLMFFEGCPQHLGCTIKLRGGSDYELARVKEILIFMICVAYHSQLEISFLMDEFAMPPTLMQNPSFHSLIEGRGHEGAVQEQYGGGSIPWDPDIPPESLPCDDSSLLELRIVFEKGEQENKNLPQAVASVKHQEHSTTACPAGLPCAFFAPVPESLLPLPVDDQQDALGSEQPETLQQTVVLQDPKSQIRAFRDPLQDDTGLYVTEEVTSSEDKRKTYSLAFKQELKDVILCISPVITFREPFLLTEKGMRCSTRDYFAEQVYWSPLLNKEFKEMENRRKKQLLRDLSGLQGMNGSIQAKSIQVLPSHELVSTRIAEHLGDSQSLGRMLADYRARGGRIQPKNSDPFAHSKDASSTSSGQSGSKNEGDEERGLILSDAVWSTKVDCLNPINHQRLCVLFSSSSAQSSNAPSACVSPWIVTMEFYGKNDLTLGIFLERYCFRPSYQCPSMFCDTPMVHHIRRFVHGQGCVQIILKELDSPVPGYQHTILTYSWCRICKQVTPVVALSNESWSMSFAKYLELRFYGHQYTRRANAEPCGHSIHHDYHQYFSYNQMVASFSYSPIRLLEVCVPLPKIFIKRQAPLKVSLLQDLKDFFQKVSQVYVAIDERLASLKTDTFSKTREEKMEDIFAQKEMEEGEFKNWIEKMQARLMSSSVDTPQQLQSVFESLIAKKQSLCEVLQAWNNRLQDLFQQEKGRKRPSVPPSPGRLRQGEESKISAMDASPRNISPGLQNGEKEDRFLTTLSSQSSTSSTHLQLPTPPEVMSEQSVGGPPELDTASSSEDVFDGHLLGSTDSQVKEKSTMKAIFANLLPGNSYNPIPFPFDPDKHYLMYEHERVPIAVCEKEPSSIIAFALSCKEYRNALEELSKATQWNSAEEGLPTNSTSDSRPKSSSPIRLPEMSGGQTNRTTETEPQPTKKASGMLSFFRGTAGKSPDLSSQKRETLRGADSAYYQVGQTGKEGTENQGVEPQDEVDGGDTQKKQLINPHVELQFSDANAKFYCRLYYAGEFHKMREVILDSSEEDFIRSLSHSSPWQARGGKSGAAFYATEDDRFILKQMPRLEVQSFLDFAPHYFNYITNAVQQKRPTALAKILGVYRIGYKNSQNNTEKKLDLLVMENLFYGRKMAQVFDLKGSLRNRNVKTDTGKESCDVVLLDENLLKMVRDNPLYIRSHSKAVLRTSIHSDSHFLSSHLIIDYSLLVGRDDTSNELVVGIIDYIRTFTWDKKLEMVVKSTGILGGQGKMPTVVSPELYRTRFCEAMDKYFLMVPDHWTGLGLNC
# Some of the results follow.
# How the values were obtained:
# Assay in all cases: log2 fold change, soluble protein after heating vs DMSO (PISA); higher = thermal stabilisation; K562 lysate, 10 uM; active = over 0.2 and 3.5 SD of the protein, either way, in both replicates (recomputed)
# nilotinib = compound: Cc1cn(-c2cc(NC(=O)c3ccc(C)c(Nc4nccc(-c5cccnc5)n4)c3)cc(C(F)(F)F)c2)cn1 [nilotinib]
# Summary of the method: (§1)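 To prepare the extract, K562 pellets were dounce-homogenised in PBS pH 7.4 with 1 mM MgCl2, giving crude material at 1 mg/mL protein. This was treated with 10 μM compound for 30 min, then heated in aliquots for 3 min over 48°C-58°C before pooling and addition of NP-40 to 0.5% at 4°C. Centrifugation at 21,000xg for 90 min left soluble protein in the supernatant, which TMTpro 16plex LC-MS/MS quantified with equalised channel sums. Results are log-two fold changes in thermal stability compared with solvent controls, from duplicates.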
# [1] = compound: Cc1nc(Nc2n[nH]c3c2CN(C(=O)N[C@H](CN(C)C)c2ccccc2)C3(C)C)c2sccc2n1
# Summary of the method: as §1
# dasatinib = compound: Cc1nc(Nc2ncc(C(=O)Nc3c(C)cccc3Cl)s2)cc(N2CCN(CCO)CC2)n1 [dasatinib]
# Summary of the method: as §1
# [2] = compound: Cc1ncc(-c2ccnc(Nc3ccc(S(C)(=O)=O)cc3)n2)n1C(C)C
# Summary of the method: as §1
# [3] = compound: Cn1cc(-c2ccc3c(c2)CCN3C(=O)Cc2cccc(C(F)(F)F)c2)c2c(N)ncnc21
# Summary of the method: as §1
# quisinostat = compound: Cn1cc(CNCC2CCN(c3ncc(C(=O)NO)cn3)CC2)c2ccccc21 [quisinostat]
# Summary of the method: as §1
# tipifarnib = compound: Cn1cncc1[C@@](N)(c1ccc(Cl)cc1)c1ccc2c(c1)c(-c1cccc(Cl)c1)cc(=O)n2C [tipifarnib]
# Summary of the method: as §1
# [4] = compound: NC(=O)Nc1cc(-c2cccc(F)c2)sc1C(=O)N[C@H]1CCCNC1
# Summary of the method: as §1
# [5] = compound: NC(=O)c1cnc(N[C@@H]2CCCC[C@@H]2N)nc1Nc1cccc(-n2nccn2)c1
# Summary of the method: as §1
# [6] = compound: NC1(c2ccc(-c3nc4ccn5c(=O)[nH]nc5c4cc3-c3ccccc3)cc2)CCC1
# Summary of the method: as §1
# [7] = compound: NCC(=O)Nc1ccc(-n2nc(C(F)(F)F)cc2-c2ccc3c(ccc4ccccc43)c2)cc1
# Summary of the method: as §1
# vorinostat = compound: O=C(CCCCCCC(=O)Nc1ccccc1)NO [vorinostat]
# Summary of the method: as §1
# silmitasertib = compound: O=C(O)c1ccc2c(c1)nc(Nc1cccc(Cl)c1)c1ccncc12 [silmitasertib]
# Summary of the method: as §1
# [8] = compound: O=C1NC(=O)C(c2cnc3ccccn23)=C1c1cn2c3c(cc(F)cc13)CN(C(=O)N1CCCCC1)CC2
# Summary of the method: as §1
# entospletinib = compound: c1cn2cc(-c3ccc4cn[nH]c4c3)nc(Nc3ccc(N4CCOCC4)cc3)c2n1 [entospletinib]
# Summary of the method: as §1
Target,log2 fold change (nilotinib),log2 fold change [1],log2 fold change (dasatinib),log2 fold change [2],log2 fold change [3],log2 fold change (quisinostat),log2 fold change (tipifarnib),log2 fold change [4],log2 fold change [5],log2 fold change [6],log2 fold change [7],log2 fold change (vorinostat),log2 fold change (silmitasertib),log2 fold change [8],log2 fold change (entospletinib)
PIGG (UniProt Q5H8A4),inactive: -0.01,inactive: -0.004,inactive: 0.014,inactive: 0.006,inactive: -0.017,inactive: -0.061,inactive: -0.018,inactive: 0.033,inactive: 0.049,inactive: 0,inactive: 0.167,inactive: 0.095,inactive: -0.017,inactive: -0.115,inactive: 0.032
PLA2G12A (UniProt Q9BZM1),inactive: -0.013,inactive: 0.006,inactive: 0.079,inactive: -0.364,inactive: 0.043,inactive: -0.258,inactive: 0.017,inactive: -0.006,inactive: 0.062,inactive: 0.024,inactive: -0.028,inactive: 0.093,inactive: 0.03,inactive: 0.032,–
PIH1D1 (UniProt Q9NWS0),inactive: 0.018,inactive: -0.047,inactive: 0.004,inactive: 0.019,inactive: -0.006,inactive: 0.026,inactive: -0.006,inactive: 0,inactive: 0.049,inactive: -0.031,inactive: -0.027,inactive: 0.032,inactive: 0.012,inactive: 0.01,inactive: 0
PKM (UniProt P14618),inactive: -0.01,inactive: -0.028,inactive: -0.014,inactive: 0,inactive: -0.018,inactive: 0.017,inactive: 0.006,inactive: -0.009,inactive: 0.001,inactive: 0.027,inactive: 0.019,inactive: -0.053,inactive: -0.02,inactive: 0.025,inactive: 0.008
PGLS (UniProt O95336),inactive: 0.008,inactive: -0.021,inactive: 0.001,inactive: 0.168,inactive: 0.022,inactive: 0.017,inactive: -0.013,inactive: -0.017,inactive: -0.073,inactive: 0.014,inactive: -0.08,inactive: 0.079,inactive: -0.034,inactive: 0.072,inactive: 0.003
PHF23 (UniProt Q9BUL5),inactive: 0.033,inactive: 0.019,inactive: 0.026,inactive: -0.016,inactive: 0.042,inactive: -0.028,inactive: 0.031,inactive: 0.019,inactive: -0.056,inactive: 0.038,inactive: 0.023,inactive: 0.059,inactive: 0,inactive: -0.029,inactive: 0
PI4KA (UniProt P42356),inactive: -0.025,inactive: 0.055,inactive: -0.098,inactive: 0.015,inactive: 0.043,inactive: -0.076,inactive: -0.031,inactive: 0.041,inactive: 0.003,inactive: 0.019,inactive: -0.011,active: -0.426,inactive: 0.077,inactive: 0.004,inactive: 0.031
PI4K2A (UniProt Q9BTU6),inactive: 0.009,inactive: 0.03,inactive: -0.036,active: 0.207,inactive: -0.024,inactive: 0.01,inactive: -0.064,inactive: 0.071,active: 0.49,inactive: -0.004,inactive: -0.006,inactive: -0.005,inactive: 0.074,inactive: -0.009,inactive: 0.001
PIR (UniProt O00625),inactive: 0.011,inactive: -0.011,inactive: 0.027,inactive: 0.012,inactive: 0.023,inactive: 0.011,inactive: 0.005,inactive: 0.02,inactive: -0.009,inactive: -0.046,inactive: 0.015,inactive: 0.035,inactive: -0.049,inactive: -0.013,inactive: -0.035
PGK1 (UniProt P00558),inactive: 0.014,inactive: -0.017,inactive: -0.008,inactive: 0.01,inactive: -0.011,inactive: 0.035,inactive: 0.03,inactive: 0.002,inactive: -0.009,inactive: 0.001,inactive: 0.014,inactive: 0.013,inactive: -0.008,inactive: 0.001,inactive: 0.003
PGM2L1 (UniProt Q6PCE3),inactive: -0.023,inactive: -0.009,inactive: 0.05,inactive: 0.006,inactive: 0.003,inactive: -0.025,inactive: 0.034,inactive: 0.001,inactive: 0.02,inactive: 0.002,inactive: 0.056,inactive: 0.097,inactive: 0,inactive: -0.035,inactive: 0
PIGU (UniProt Q9H490),inactive: -0.047,inactive: 0.014,inactive: -0.009,inactive: 0.073,inactive: 0.036,inactive: -0.044,inactive: 0.031,inactive: 0.031,inactive: 0.074,inactive: -0.044,inactive: -0.072,inactive: 0.109,inactive: 0.04,inactive: 0.035,–
PIK3C3 (UniProt Q8NEB9),inactive: -0.001,inactive: -0.011,inactive: -0.05,inactive: 0.062,inactive: -0.025,inactive: -0.022,inactive: -0.054,inactive: 0.027,inactive: 0.04,inactive: -0.008,inactive: -0.04,inactive: -0.066,inactive: 0.037,inactive: 0.019,inactive: -0.014
PHOSPHO2 (UniProt Q8TCD6),inactive: 0.003,inactive: -0.013,inactive: 0.024,inactive: 0.038,inactive: -0.033,inactive: 0.03,inactive: 0.068,inactive: -0.036,inactive: -0.004,inactive: 0.013,inactive: -0.051,inactive: 0.181,inactive: -0.002,inactive: 0.001,inactive: -0.116
PGM3 isoform 4 (UniProt O95394),inactive: 0.004,inactive: -0.007,inactive: -0.017,inactive: -0.015,inactive: 0.037,inactive: 0.026,inactive: 0.008,inactive: 0.002,inactive: 0.001,inactive: 0.016,inactive: -0.039,inactive: -0.078,inactive: 0.03,inactive: -0.049,inactive: 0.032
PKN2 (UniProt Q16513),inactive: 0.027,inactive: -0.086,inactive: -0.097,inactive: 0.011,inactive: 0.006,inactive: 0.065,inactive: -0.01,inactive: -0.184,inactive: -0.007,inactive: -0.02,inactive: 0.051,inactive: 0.005,inactive: -0.023,inactive: -0.021,inactive: -0.037
PKLR (UniProt P30613),inactive: 0.001,inactive: -0.016,inactive: 0.006,inactive: -0.015,inactive: -0.034,inactive: 0.021,inactive: 0.017,inactive: -0.015,inactive: -0.001,inactive: 0.022,inactive: 0.025,inactive: 0.036,inactive: -0.037,inactive: 0.026,inactive: 0
PIKFYVE (UniProt Q9Y2I7),inactive: 0.017,inactive: -0.017,inactive: -0.022,inactive: -0.015,inactive: 0.009,inactive: -0.014,inactive: -0.035,inactive: 0.007,inactive: 0.027,inactive: -0.005,inactive: 0.031,active: -0.476,inactive: 0.03,inactive: -0.026,inactive: -0.014
PHC3 isoform 7 (UniProt Q8NDX5),inactive: -0.188,inactive: -0.016,inactive: -0.001,inactive: -0.063,inactive: 0.109,inactive: -0.073,inactive: -0.008,inactive: 0.112,inactive: -0.004,inactive: 0.05,inactive: -0.007,inactive: -0.216,inactive: 0.061,inactive: -0.031,inactive: 0.213
PGRMC1 (UniProt O00264),inactive: 0.028,inactive: 0.015,inactive: 0.026,inactive: -0.078,inactive: 0.012,inactive: 0.106,inactive: 0.003,inactive: -0.059,inactive: 0.017,inactive: 0.056,inactive: -0.018,inactive: 0.113,inactive: 0.017,inactive: 0.014,inactive: -0.02
PIK3R1 (UniProt P27986),inactive: -0.041,inactive: -0.072,inactive: -0.024,inactive: 0.058,inactive: 0.004,inactive: -0.027,inactive: 0.039,inactive: 0.042,inactive: 0.021,inactive: 0.249,inactive: -0.035,inactive: -0.206,inactive: 0.213,inactive: 0.022,inactive: 0.03

# Not a retest: entries from further up.
Target,log2 fold change (nilotinib),log2 fold change [1],log2 fold change (dasatinib),log2 fold change [2],log2 fold change [3],log2 fold change (quisinostat),log2 fold change (tipifarnib),log2 fold change [4],log2 fold change [5],log2 fold change [6],log2 fold change [7],log2 fold change (vorinostat),log2 fold change (silmitasertib),log2 fold change [8],log2 fold change (entospletinib)
PIGG (UniProt Q5H8A4),inactive: -0.01,inactive: -0.004,inactive: 0.014,inactive: 0.006,inactive: -0.017,inactive: -0.061,inactive: -0.018,inactive: 0.033,inactive: 0.049,inactive: 0,inactive: 0.167,inactive: 0.095,inactive: -0.017,inactive: -0.115,inactive: 0.032
PLA2G12A (UniProt Q9BZM1),inactive: -0.013,inactive: 0.006,inactive: 0.079,inactive: -0.364,inactive: 0.043,inactive: -0.258,inactive: 0.017,inactive: -0.006,inactive: 0.062,inactive: 0.024,inactive: -0.028,inactive: 0.093,inactive: 0.03,inactive: 0.032,–
PIH1D1 (UniProt Q9NWS0),inactive: 0.018,inactive: -0.047,inactive: 0.004,inactive: 0.019,inactive: -0.006,inactive: 0.026,inactive: -0.006,inactive: 0,inactive: 0.049,inactive: -0.031,inactive: -0.027,inactive: 0.032,inactive: 0.012,inactive: 0.01,inactive: 0
